Assay results: PMC2841635
No constants are given. Whether binding was seen depends on the method and setting. In cells and extracts the contact can be indirect. Some binding calls cover weakened binding; strength is not graded here.

Chains of the proteins cited; added tags and fusions are not shown.
UniProt O54967: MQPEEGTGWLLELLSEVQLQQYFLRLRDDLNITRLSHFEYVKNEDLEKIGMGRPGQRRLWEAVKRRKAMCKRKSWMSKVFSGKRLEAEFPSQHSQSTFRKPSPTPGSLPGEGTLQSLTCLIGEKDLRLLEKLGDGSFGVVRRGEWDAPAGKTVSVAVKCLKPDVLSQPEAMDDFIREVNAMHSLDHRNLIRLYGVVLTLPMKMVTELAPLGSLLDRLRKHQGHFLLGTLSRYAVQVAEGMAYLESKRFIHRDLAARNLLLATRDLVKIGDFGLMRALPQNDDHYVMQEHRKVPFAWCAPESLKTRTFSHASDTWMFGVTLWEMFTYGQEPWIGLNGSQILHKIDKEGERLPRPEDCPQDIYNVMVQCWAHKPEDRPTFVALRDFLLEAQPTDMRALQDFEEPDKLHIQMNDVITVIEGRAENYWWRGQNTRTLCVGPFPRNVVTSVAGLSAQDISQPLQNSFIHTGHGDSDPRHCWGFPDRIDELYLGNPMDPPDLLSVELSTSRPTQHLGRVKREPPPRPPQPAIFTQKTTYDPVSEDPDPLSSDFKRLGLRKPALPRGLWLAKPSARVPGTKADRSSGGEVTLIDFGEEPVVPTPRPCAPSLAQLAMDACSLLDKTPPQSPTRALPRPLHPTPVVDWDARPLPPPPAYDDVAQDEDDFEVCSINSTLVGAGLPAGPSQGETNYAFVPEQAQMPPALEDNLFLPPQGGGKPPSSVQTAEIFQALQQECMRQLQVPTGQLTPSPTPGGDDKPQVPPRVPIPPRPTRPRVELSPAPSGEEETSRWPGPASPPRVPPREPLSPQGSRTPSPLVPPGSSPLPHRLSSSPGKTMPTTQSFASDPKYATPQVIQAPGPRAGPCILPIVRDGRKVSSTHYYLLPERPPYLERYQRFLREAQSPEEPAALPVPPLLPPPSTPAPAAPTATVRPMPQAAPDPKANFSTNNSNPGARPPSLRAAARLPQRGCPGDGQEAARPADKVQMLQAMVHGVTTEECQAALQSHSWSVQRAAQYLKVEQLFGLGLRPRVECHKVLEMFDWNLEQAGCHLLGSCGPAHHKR
UniProt Q60823: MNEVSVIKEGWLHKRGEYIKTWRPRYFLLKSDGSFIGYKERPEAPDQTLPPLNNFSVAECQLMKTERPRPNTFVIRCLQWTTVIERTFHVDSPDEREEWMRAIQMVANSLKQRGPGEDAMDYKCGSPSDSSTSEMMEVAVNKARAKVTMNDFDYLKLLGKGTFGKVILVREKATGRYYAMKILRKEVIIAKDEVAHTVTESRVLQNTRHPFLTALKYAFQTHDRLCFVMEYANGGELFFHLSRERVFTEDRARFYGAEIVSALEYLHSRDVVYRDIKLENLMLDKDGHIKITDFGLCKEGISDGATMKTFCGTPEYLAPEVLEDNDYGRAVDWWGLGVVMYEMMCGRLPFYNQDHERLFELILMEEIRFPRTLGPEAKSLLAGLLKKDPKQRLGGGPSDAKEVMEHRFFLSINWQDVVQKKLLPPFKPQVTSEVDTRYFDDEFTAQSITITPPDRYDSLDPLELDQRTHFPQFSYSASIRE
UniProt Q9WUA6: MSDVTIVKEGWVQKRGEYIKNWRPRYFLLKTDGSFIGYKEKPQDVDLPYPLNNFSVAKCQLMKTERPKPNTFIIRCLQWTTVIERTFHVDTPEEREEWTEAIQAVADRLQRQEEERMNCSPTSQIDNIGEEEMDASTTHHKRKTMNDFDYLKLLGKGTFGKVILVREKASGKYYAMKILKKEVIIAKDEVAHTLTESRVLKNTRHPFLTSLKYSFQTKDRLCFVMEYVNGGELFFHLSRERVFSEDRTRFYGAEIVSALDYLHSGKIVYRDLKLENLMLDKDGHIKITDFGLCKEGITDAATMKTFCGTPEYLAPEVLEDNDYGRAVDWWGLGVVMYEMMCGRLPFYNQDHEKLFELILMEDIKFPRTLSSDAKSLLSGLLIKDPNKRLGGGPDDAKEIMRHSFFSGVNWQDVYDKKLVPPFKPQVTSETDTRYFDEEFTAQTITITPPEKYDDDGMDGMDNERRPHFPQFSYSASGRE

Biological target: Ack1, endogenous in mouse embryo fibroblasts (mouse (endogenous in MEFs)) (UniProt O54967)
Assay: co-IP; endogenous proteins in lysates of MEF1KO, MEF2KO and MEF1&2KO cells, serum starved 24 h, EGF 10 ng/ml 10 mins, with or without LY294002 (10 µM, 1 h); IP with Ack1 antibodies, IB with pan-AKT antibodies; 25 mmol/L Tris pH 7.5, 225 mmol/L NaCl, 1% Triton X-100, 10% glycerol

binding	Substance
binds weakly	Akt2, endogenous in mouse embryo fibroblasts (from UniProt Q60823 1-481)
no binding	Akt3, endogenous in MEF1&2KO cells (from UniProt Q9WUA6 1-479)
